For at least one entry, the source does not settle the construct or the ends of the probe.

Chains of the proteins cited; added tags and fusions are not shown. Lines headed by an entry give the natural chain unless they say otherwise; changes in a name come on top.
UniProt Q13151: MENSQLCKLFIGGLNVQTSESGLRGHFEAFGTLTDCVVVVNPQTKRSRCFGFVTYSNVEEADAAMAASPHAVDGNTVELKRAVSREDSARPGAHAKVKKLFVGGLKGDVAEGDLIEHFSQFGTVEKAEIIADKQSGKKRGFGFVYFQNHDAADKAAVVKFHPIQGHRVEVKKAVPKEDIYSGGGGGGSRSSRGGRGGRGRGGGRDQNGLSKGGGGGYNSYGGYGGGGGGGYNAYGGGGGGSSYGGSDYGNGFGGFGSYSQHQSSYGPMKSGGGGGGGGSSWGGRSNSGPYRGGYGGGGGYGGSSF

For the data set, the target named is GST-hnRNPA0 (UniProt Q13151). Kind of data set: EMSA. Conditions: 250 ng RNA, 10 and 25 ug protein; EMSA: 30 min at RT in a binding buffer cited to ref 39 (composition, salt and pH not given); 10% native PAGE, 0.5x TBE; recombinant protein; residues 1-305; protein details: N-terminal GST (pGEX-5X-2); label: biotin-16-UTP (internal); probe letters rebuilt from the primers and the genome; part of a longer molecule. (Mobility shift assays separate free from complexed probe on a gel.)

Consider “CACAGAUGUGUGAUUCACAGUGUGAAUCUUGGUGUCUACGUUACCAGGCAGGAAGGCUGAGAGGAGAGAGACUCCAGCUGGGUUGGAAAACAGUAUUUUCCAAACUACCUUCCAGUUCCUCAUUUUUGAAUACAGGCAUAGAGUUCAGACUUUUUUUAAA [FrC1 RNA (CCR2 3'-UTR, 160 nt)]”, for which the binding result is given as “binds”.
